Here are results for 13 targets from the supplement of paper PMC10849652.

Amino acid sequences for entries named in this document (tags omitted). A change or cut given only in a name is not applied to a line headed by its entry.
UniProt Q9NYY8: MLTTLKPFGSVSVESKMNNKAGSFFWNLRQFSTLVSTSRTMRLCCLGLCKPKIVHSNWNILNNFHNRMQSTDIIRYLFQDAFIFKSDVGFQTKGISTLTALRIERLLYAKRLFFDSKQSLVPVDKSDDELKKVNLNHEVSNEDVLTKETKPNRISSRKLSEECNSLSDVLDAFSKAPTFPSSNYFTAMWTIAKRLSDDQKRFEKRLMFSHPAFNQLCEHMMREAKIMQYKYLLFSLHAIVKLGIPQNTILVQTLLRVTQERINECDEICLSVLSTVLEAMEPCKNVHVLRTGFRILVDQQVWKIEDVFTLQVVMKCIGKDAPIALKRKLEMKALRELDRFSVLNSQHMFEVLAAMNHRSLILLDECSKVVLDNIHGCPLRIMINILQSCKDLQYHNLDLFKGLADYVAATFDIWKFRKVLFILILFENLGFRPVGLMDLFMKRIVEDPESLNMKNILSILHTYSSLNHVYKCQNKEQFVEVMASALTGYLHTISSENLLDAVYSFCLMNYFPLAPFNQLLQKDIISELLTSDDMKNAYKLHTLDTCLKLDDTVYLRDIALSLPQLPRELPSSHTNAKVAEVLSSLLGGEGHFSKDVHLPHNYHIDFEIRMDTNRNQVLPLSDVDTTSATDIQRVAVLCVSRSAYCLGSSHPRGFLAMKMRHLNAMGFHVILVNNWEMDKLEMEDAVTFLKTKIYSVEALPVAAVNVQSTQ
UniProt P14324: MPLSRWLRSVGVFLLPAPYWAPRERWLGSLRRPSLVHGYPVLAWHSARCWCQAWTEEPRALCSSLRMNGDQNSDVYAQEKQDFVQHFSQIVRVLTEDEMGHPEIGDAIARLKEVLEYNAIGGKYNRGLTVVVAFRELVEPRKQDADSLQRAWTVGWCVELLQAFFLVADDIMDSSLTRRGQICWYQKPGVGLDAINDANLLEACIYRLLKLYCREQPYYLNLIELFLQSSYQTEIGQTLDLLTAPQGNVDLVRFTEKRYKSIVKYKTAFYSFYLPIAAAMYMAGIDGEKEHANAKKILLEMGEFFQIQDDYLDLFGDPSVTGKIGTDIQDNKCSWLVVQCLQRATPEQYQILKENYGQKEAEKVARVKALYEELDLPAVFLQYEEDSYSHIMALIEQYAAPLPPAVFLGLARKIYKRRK
UniProt P22830: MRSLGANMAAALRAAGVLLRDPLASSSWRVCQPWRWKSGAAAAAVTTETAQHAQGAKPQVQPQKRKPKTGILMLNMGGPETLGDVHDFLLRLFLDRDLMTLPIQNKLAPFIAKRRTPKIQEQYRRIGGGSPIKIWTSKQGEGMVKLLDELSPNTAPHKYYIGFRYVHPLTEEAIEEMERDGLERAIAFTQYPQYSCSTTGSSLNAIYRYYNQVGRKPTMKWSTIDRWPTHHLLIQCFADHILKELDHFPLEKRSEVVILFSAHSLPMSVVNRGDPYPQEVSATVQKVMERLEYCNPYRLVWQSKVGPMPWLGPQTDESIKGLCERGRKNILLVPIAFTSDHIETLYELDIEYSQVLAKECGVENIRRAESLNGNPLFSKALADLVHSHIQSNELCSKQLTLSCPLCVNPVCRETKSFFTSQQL
UniProt Q96CD0: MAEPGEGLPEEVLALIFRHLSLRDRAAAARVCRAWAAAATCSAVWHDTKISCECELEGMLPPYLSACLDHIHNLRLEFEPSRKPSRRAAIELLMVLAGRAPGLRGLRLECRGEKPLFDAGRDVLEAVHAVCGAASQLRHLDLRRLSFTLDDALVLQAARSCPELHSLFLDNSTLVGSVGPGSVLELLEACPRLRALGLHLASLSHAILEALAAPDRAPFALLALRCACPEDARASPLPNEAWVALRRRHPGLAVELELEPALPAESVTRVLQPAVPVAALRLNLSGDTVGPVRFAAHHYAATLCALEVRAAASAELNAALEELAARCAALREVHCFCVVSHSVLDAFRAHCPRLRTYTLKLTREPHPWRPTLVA
UniProt Q96ME1: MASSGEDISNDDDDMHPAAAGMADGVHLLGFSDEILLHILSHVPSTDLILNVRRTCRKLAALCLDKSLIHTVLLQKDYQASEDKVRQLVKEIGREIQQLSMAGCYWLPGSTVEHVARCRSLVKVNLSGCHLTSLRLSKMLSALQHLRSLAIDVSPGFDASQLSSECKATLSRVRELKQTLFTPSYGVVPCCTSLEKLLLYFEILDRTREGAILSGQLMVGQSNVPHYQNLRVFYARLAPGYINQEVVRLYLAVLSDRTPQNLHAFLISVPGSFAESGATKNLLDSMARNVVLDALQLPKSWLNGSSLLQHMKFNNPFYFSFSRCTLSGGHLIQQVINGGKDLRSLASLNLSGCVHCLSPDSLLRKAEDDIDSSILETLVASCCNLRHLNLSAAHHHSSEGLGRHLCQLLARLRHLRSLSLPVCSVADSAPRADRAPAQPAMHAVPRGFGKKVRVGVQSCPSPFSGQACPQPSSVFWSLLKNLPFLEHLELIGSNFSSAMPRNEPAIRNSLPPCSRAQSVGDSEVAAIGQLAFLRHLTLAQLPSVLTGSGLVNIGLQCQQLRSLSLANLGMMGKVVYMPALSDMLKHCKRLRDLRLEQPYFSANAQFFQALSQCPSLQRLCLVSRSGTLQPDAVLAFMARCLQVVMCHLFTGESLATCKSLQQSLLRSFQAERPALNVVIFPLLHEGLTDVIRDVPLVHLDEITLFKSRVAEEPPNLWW
UniProt Q8N3X1: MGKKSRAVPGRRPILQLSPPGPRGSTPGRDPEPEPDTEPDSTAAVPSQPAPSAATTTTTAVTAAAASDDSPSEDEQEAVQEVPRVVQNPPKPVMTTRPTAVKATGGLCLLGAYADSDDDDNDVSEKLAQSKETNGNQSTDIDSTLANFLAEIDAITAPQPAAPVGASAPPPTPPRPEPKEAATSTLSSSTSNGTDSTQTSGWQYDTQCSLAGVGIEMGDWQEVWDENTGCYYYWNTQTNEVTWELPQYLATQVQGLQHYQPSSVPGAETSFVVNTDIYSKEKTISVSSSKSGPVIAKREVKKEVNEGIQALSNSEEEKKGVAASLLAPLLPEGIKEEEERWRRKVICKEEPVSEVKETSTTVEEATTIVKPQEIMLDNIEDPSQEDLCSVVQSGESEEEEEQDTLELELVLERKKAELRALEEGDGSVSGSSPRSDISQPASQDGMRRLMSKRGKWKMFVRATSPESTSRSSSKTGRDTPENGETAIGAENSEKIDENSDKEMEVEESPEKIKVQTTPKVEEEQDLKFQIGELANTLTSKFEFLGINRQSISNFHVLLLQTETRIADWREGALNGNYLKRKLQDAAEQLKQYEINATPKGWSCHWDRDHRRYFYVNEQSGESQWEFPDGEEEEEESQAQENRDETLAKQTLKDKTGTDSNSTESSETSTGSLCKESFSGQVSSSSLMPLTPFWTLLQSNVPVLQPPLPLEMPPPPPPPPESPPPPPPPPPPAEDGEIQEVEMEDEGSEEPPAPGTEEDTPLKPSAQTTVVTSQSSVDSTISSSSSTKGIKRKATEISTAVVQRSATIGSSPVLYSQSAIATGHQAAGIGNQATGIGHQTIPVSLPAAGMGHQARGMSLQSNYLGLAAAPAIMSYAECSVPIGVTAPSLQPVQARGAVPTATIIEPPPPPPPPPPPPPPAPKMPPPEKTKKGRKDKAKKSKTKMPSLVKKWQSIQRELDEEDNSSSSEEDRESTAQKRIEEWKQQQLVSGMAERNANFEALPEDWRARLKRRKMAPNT
UniProt Q9Y613: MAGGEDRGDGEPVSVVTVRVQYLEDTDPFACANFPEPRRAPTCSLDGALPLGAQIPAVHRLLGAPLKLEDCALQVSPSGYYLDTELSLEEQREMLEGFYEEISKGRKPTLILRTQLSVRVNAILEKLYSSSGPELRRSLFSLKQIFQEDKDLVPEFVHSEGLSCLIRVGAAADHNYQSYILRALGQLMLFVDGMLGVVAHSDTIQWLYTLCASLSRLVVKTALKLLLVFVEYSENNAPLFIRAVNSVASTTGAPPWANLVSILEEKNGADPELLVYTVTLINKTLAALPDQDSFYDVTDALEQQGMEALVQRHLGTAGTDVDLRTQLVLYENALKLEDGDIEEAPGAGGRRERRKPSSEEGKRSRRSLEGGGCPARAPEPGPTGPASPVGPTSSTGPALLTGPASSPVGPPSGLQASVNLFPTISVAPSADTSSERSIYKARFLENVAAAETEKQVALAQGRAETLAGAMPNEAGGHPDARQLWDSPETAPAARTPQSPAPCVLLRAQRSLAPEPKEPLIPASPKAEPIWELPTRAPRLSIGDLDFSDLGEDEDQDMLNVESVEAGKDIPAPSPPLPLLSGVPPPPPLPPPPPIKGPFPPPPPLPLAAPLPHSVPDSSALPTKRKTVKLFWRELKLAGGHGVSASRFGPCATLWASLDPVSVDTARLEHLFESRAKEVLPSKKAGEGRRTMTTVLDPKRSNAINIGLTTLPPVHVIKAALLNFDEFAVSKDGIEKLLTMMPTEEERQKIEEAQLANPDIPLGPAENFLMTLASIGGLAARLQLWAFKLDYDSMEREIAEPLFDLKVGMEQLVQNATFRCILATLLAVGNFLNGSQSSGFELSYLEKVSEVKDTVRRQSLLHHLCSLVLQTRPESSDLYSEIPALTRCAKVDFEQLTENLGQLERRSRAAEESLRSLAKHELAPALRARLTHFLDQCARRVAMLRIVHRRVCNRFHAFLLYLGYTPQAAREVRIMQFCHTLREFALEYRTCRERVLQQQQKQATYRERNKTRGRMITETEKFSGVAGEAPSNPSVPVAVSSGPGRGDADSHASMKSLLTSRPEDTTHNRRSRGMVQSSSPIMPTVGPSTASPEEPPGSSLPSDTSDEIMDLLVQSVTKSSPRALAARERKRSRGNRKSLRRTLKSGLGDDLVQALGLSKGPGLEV
UniProt Q17RN3: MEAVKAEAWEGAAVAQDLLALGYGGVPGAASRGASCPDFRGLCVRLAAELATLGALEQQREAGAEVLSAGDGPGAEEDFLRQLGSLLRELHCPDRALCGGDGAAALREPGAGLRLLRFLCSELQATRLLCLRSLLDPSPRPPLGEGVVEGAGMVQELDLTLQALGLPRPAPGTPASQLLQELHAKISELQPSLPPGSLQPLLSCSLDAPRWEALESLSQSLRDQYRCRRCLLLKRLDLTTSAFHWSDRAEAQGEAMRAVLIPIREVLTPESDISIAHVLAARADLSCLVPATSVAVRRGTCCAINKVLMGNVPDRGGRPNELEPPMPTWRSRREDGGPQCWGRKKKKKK
UniProt B1AJZ9: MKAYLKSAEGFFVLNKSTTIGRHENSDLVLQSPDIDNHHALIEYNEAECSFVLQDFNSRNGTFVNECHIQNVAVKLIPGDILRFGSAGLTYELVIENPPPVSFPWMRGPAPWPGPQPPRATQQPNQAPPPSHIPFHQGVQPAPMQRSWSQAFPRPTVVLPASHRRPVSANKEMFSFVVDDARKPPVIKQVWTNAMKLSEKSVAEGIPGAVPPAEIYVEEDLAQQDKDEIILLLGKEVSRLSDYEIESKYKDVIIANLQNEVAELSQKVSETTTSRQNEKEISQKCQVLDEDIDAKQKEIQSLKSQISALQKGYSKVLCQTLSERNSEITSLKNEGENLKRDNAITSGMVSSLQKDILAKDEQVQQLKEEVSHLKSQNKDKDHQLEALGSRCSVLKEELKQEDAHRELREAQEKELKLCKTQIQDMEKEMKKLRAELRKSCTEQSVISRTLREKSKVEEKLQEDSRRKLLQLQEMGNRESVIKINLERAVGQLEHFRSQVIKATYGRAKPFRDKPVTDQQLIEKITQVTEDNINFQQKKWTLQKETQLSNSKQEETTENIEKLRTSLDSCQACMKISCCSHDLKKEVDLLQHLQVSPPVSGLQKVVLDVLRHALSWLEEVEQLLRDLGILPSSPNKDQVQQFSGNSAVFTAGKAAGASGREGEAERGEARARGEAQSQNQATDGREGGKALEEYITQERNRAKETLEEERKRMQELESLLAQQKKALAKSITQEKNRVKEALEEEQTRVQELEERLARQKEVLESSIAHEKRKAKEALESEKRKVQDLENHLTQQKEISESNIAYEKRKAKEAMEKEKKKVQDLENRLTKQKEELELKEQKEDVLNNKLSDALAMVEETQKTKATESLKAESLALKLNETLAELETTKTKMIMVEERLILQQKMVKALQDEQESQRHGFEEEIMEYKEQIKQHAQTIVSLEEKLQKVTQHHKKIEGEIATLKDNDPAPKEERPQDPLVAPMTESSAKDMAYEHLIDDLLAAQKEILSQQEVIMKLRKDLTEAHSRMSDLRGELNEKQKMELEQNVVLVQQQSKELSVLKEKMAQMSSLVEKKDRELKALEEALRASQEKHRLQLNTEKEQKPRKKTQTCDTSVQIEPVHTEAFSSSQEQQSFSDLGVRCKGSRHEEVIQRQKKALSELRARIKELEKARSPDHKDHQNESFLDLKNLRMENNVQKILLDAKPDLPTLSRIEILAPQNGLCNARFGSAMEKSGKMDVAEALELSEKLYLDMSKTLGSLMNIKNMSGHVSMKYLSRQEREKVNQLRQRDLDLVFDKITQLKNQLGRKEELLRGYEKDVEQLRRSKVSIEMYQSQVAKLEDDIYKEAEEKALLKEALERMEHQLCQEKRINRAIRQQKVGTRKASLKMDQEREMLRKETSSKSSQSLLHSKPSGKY

What all share (assay): log2 fold change, soluble protein after heating vs DMSO (PISA); higher = thermal stabilisation; K562 lysate, 10 uM; active = over 0.2 and 3.5 SD of the protein, either way, in both replicates (recomputed)
Compound in assay [1]: CCCS(=O)(=O)Nc1ccc(F)c(C(=O)c2c[nH]c3ncc(-c4ccc(Cl)cc4)cc23)c1F [vemurafenib]
An outline of the steps:
(§1)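 The values are log-two fold changes in thermal stability compared with solvent controls and come from duplicates. They were obtained by TMTpro 16plex LC-MS/MS, with channel sums equalised, on the supernatant after 21,000xg for 90 min. That supernatant came from crude K562 extract at 1 mg/mL protein treated with 10 μM compound for 30 min, heated for 3 min across 48°C-58°C, pooled and brought to 0.5% NP-40 at 4°C.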

Compound in assay [2]: CCCS(=O)(=O)Nc1ccc(F)c(C(=O)c2c[nH]c3ncc(Cl)cc23)c1F
The method, boiled down: as §1

Compound in assay [3]: CCN(CCCOc1ccc2c(Nc3cc(CC(=O)Nc4cccc(F)c4)[nH]n3)ncnc2c1)CCOP(=O)(O)O [barasertib]
The method, boiled down: as §1

Compound in assay [4]: CC[C@@H]1C(=O)N(C)c2cnc(Nc3ccc(C(=O)NC4CCN(C)CC4)cc3OC)nc2N1C1CCCC1
The method, boiled down: as §1

Compound in assay [5]: CC[C@@H]1C(=O)N(C)c2cnc(Nc3ccc(C(=O)N[C@H]4CC[C@H](N5CCN(CC6CC6)CC5)CC4)cc3OC)nc2N1C(C)C [volasertib]
The method, boiled down:
as §1

Compound in assay [6]: CCn1c(C(=O)N(C2CC2)C2CC2)cc2c3c(ncn3C)c(Nc3cc(C)n(C)n3)nc21
The method, boiled down: as §1

Compound in assay [7]: CCn1cc(-c2ccnc3[nH]c(-c4cccc(CN(C)C)c4)cc23)c(-c2ccc(NC(=O)N(C)C)cc2)n1
The method, boiled down: as §1

Compound in assay [8]: CN1CCC(CNc2ccc3ncc(-c4cccc(OC(F)(F)F)c4)n3n2)CC1
An outline of the steps:
as §1

Compound in assay [9]: CN1CCN(CCOc2cc(OC3CCOCC3)c3c(Nc4c(Cl)ccc5c4OCO5)ncnc3c2)CC1 [saracatinib]
An outline of the steps:
as §1

Compound in assay [10]: CN1CCN(c2nc(C3=C(c4c[nH]c5ccccc45)C(=O)NC3=O)c3ccccc3n2)CC1 [sotrastaurin]
An outline of the steps: as §1

This is one part of the list.

For FBXO30 (UniProt Q8TB52), the log2 fold change was inactive: -0.065 in assay [1]; inactive: 0.02 in assay [2]; inactive: 0.015 in [3]; inactive: -0.026 in assay [4]; inactive: -0.042 in assay [5]; inactive: 0.009 in assay [6]. In addition, the log2 fold change in [7] was inactive: 0.208; in [8], inactive: -0.115; in assay [9], inactive: -0.015; in assay [10], inactive: -0.013.

In the case of FASTKD2 (UniProt Q9NYY8), the log2 fold change in assay [1] is inactive: -0.014; in assay [2] it was inactive: -0.002; in assay [3] it was inactive: 0.037; in [4], inactive: 0.004; in [5] it was inactive: -0.036; in assay [6], inactive: 0.011. In addition, the log2 fold change was inactive: -0.072 in assay [7], inactive: 0.03 in [8], inactive: 0.012 in [9] and inactive: 0.014 in [10].

As to FDPS (UniProt P14324), the log2 fold change in assay [1] is inactive: 0.027; in assay [2], inactive: 0.004; in assay [3], inactive: -0.002; in assay [4], inactive: -0.021; in assay [5], inactive: -0.07; in assay [6], inactive: -0.038. The log2 fold change in [7] was inactive: -0.05; in assay [8], inactive: -0.038; in assay [9] it was inactive: 0.014; in assay [10] it was inactive: -0.013.

Take FECH isoform 2 (UniProt P22830): the log2 fold change in assay [1] was inactive: 0.363; in assay [2] it was active: -0.891; in [3], inactive: -0.082; in assay [4], inactive: 0.477; in assay [5], inactive: 0.078; in assay [6], inactive: -0.03. The log2 fold change was inactive: 0.128 in [7], inactive: 0.699 in assay [8], inactive: -0.287 in assay [9] and inactive: 0.014 in assay [10].

Take FBXL8 (UniProt Q96CD0): the log2 fold change in assay [1] was inactive: 0.004; in assay [2] it was inactive: 0.025; in assay [3] it was inactive: -0.093; in assay [4] it was inactive: 0.186; in [5], inactive: -0.029; in [6] it was inactive: 0.032. For the same target, the log2 fold change in assay [7] was inactive: -0.015; in assay [8] it was inactive: -0.005; in assay [9] it was inactive: 0.029; in assay [10], inactive: -0.016.

For the target FBXL18 isoform 4 (UniProt Q96ME1), the log2 fold change in [1] is inactive: 0.012; in [2], inactive: 0.017; in assay [3] it was inactive: 0.031; in assay [4], inactive: -0.013; in assay [5] it was inactive: -0.011; in [6], inactive: -0.012. In addition, the log2 fold change in assay [7] is inactive: -0.072; in assay [8], inactive: 0.033; in assay [9] it was inactive: -0.006; in [10], inactive: -0.014.

With FBXO9 (UniProt Q9UK97), the log2 fold change is inactive: -0.025 in assay [1]; inactive: 0.007 in assay [2]; inactive: 0.116 in [3]; inactive: 0.135 in assay [4]; inactive: -0.012 in [5]; inactive: -0.015 in assay [6]. Also, the log2 fold change in [7] is inactive: 0.049; in assay [8] it was inactive: -0.083; in [9], inactive: -0.013; in [10], inactive: 0.021.

Turning to FNBP4 isoform 2 (UniProt Q8N3X1), the log2 fold change in assay [1] is inactive: 0.006; in assay [2] it was inactive: 0.003; in [3] it was inactive: -0.045; in [4], inactive: 0.026; in assay [5] it was inactive: 0.015; in assay [6] it was inactive: 0. The log2 fold change was inactive: -0.004 in [7], inactive: 0.013 in assay [8], inactive: -0.021 in [9] and inactive: -0.019 in assay [10].

With FHOD1 (UniProt Q9Y613), the log2 fold change was inactive: -0.018 in assay [1]; inactive: 0.018 in assay [2]; inactive: 0.042 in assay [3]; inactive: -0.05 in assay [4]; inactive: -0.034 in [5]; inactive: 0.048 in [6]. Also, the log2 fold change in assay [7] was inactive: 0.013; in assay [8], inactive: -0.017; in [9], inactive: 0.015; in assay [10] it was inactive: 0.036.

With FLYWCH2 (UniProt Q96CP2), the log2 fold change is inactive: -0.01 in [1]; inactive: -0.01 in [2]; inactive: -0.014 in assay [3]; inactive: 0.1 in assay [4]; inactive: 0.017 in assay [5]; inactive: 0.008 in [6]. In addition, the log2 fold change in [7] is inactive: -0.039; in assay [8] it was inactive: 0.036; in [9], inactive: 0.01; in [10], inactive: -0.01.

Turning to FAM98C (UniProt Q17RN3), the log2 fold change in [1] is inactive: 0; in [2], inactive: -0.108; in [3], inactive: 0.043; in [4], inactive: -0.241; in assay [5], inactive: -0.187; in assay [6] it was inactive: -0.162. Moreover, the log2 fold change in assay [7] is inactive: 0.112; in [8] it was inactive: 0.018; in assay [9], inactive: 0.112; in assay [10] it was inactive: 0.115.

For the target FHAD1 isoform 3 (UniProt B1AJZ9), the log2 fold change in assay [1] is inactive: 0.266; in assay [2] it was inactive: 0.06; in [4], inactive: 0.408; in assay [5], inactive: 0.038; in assay [6], inactive: -0.252; in assay [9], inactive: 0.066.

For FBXW11 (UniProt Q9UKB1), the log2 fold change in assay [2] is inactive: 0.08; in assay [3], inactive: 0.133; in [4], inactive: -0.06; in assay [5], inactive: -0.117; in assay [6], inactive: -0.02; in [7], inactive: -0.086. The log2 fold change in assay [8] was inactive: -0.095; in [9], inactive: -0.01; in [10], inactive: 0.073.
